These are yes or no findings as the source states them, for the method shown. Some results given as binding are weak or reduced against the parent protein; the word gives no strength.
Assays:
[1] = substrate: PNO (Homo sapiens) (UniProt P43630); experiment: flow cytometry on the PNO Sezary cell line (secondary screen)
[2] = target: KIR3DL2 at the surface of HUT78 Sezary Syndrome cell line (human) (UniProt P43630); experiment: flow cytometry on the HUT78 Sezary cell line (secondary screen)
[3] = target: domain 1-2 KIR3DL2 polypeptide on transfected HEK cells (Homo Sapiens) (UniProt P43630); experiment: flow cytometry on transfected HEK-293T cells, 5 µg/ml antibody
[4] = target: KIR3DL2 on fresh Sezary Syndrome cells of patients (human) (UniProt P43630); experiment: flow cytometry on whole blood of Sezary Syndrome patient, hybridoma supernatant + GAM-PE
[5] = target: KIR3DL2 at the surface of HUT78 Sezary Syndrome cell line (human) (UniProt P43630); experiment: fluoro-microscopy on HUT78 cells, 10 µg/ml antibody, 1H at 4° C.
[6] = target: KIR3DL2 on fresh Sezary Syndrome cells of patients (human) (UniProt P43630); experiment: flow cytometry of whole blood of a Sezary Syndrome patient, antibody + GaM-PE against CD4
[7] = target: NK cells, including normal KIR3DL2+ NK cells (Homo sapiens) (UniProt P43630); experiment: as above
[8] = target: KIR3DL2 at the surface of HUT78 Sezary Syndrome cell line (human) (UniProt P43630); experiment: flow cytometry competition on HUT78 cells; naked antibody titrated against 15C11-PE (5 µg/ml)
[9] = target: domain 1-2 KIR3DL2 polypeptide on transfected HEK cells (Homo Sapiens) (UniProt P43630); experiment: flow cytometry on transfected HEK cells (legend of FIG. 2)
[10] = target: KIR3DL2 mutant 5 (P66T) (human) (UniProt P43630); experiment: flow cytometry on HEK-293T cells transfected with the mutant
[11] = target: KIR3DL2 at the surface of HUT78 Sezary Syndrome cell line (human) (UniProt P43630); experiment: flow cytometry competition against 15C11-PE
[12] = target: KIR3DL2 at the surface of HUT78 Sezary Syndrome cell line (human) (UniProt P43630); experiment: flow cytometry competition

Sequences of proteins named here, by UniProt entry; tags and fusion partners are left off. A change or cut given only in a name is not applied to a line headed by its entry. Residues count along the entry.
UniProt P43630, residues 22-455: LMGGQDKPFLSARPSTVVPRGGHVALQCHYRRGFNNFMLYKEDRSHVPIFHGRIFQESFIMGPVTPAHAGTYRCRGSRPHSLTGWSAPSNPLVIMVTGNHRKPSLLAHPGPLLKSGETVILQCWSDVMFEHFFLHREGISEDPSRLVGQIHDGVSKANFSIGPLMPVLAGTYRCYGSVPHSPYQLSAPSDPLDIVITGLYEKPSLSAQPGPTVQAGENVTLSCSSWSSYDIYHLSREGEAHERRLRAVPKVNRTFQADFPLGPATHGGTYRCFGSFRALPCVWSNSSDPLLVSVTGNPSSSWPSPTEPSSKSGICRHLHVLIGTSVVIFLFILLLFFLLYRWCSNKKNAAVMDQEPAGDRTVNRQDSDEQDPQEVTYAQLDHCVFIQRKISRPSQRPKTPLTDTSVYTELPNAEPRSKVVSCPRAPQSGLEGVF

Measured: binding

B1: antibody 15C11 (antibody, mouse IgG2a, V domains shown)
VH: EVKLEESGGGLVQPGGSMKLSCAASGFTFSDAWMDWVRQSPEKGLEWVAEIRSKANNHATYYAESVKGRFTISRDDSKSSVYLRMNSLRAEDTGIYYCTGGYYPVYWGQGTLVTVSA
VL: DIQMTQSPSSLSASLGGKVTITCKASQDINKNIAWYQHKPGKGPRLLIHYTSTLQPGFPSRFSGSGSGRDYSFSISNLEPEDLATYYCLQYDNLLTFGGGTKLEIK
not listed: [10] | [11] | [12]
binds: all other assays above

B2: antibody 19H12 (antibody, mouse IgG2b, V domains shown)
VH: QIQLVQSGPELKKPGETVKISCKASGYTFTNFGMNWVKQAPGKGLKWMGWINTYTGEPTYADDFKGRFAFSLETSASTAYLQINNLKNEDMATYFCARNGNFGYYFDYWGQGTTLTVSS
VL: DVLMTQTPLSLPVSLGDQASFSCRSSQNIVHSNGNTYLEWYLQKPGQSPSLLIYKVSNRFSGVPDRFSGSGSGTDFTLKITRVEAEDLGVYYCFQGSHVPFTFGSGTKLEIK
not listed: [12]
binds: all other assays above

B3: antibody 12B11 (antibody, V domains shown)
VH: QLVQSGPELKNPGETVKISCKASGYTFTNYGMNWVKQAPGKGLKWMGWINTYTGEPTYADDFKGRFAFSLETSASTAYLQINNLKNEDTATYFCAHGPWLAYWGQGTLVTVS
VL: DIKMTQSPSSMYASLGERVTITCKASQDINVYLSWFQQKPGKSPKTLIYRAIRLVDGVPSRFSGSGSGQDYSLTISSLDYEDMGIYYCLQYDELPYTFGGGTKLEIE
binds: [4] | [5] | [10] | [12]
